B1: glmS ribozyme (parent)
chain: AUAAAAGCGCCAGAACUACAGAAAUGUAGUUGACGAGGAGGAGGUUUAUCGAAUUUUCGGCGGAUGCCUCCAAA

± gives the standard error. Many entries were measured with a wide error.

The values below come from the supplement of paper PMC7125110.

Variants of B1 are the subject of the first data set. The experiment in a line: KM; higher = weaker cofactor use; RNA array. Conditions: with glucosamine-6-phosphate. The method, boiled down:
(§1)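 The measurements used barcoded ribozyme variants on sequenced MiSeq chips, transcribed in situ by E. coli RNA polymerase and tracked at 37 °C with a hybridised Cy3 probe. Glucosamine-6-phosphate, 40 μM to 10 mM in HEPES/KCl/Mg(OAc)2 buffer, was flowed in while tiles were imaged over ~14 h. Baseline-normalised signals, also normalised to non-cleaving reference variants, gave per-tile medians that were fit to one- or two-exponential decays for kobs. kcat and KM resulted from weighted Michaelis–Menten fits across concentrations.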
Usually KM stands for the substrate concentration at which the rate is half of its maximum. With U57C A64G, the KM stood at 3140 ± 87 µM.

U54A: the KM was 2360 ± 680 µM.

With U54G, the Michaelis constant (KM) stood at 1870 ± 470 µM.

Turning to U54C, the Michaelis constant (KM) was 2290 ± 240 µM.

For G13U C58G, the KM was found to be 5540 ± 4700 µM.

U54G U55A C70G: the KM came to 46.3 ± 35 µM.

Regarding G37A U56C G66U, the KM is 28500 ± 22000 µM.

Regarding U45A U49G, the KM is 1560 ± 570 µM.

For the variant A15G C70A, the KM stood at 481 ± 310 µM.

Take U31A G66U: the KM turned out to be 1380 ± 190 µM.

On to G9A, for which the KM came out at 5140 ± 880 µM.

On to C16U U56A, for which the KM worked out at 1240 ± 1100 µM.

G59U G63A: the KM worked out at 315 ± 270 µM.

A6U U31A: the KM was 1630 ± 1200 µM.

As to A12G U45G, the KM came to 5260 ± 300 µM.

Take U54G C67U: the KM stood at 417 ± 370 µM.

Turning to U45G A64G, the KM worked out at 2790 ± 990 µM.

For A53C C58U, the KM worked out at 11600 ± 5100 µM.

On to G44U U47C, for which the KM worked out at 20700 ± 17000 µM.

For the variant U31G G41U, the KM stood at 1350 ± 760 µM.

On to U31G G41C, for which the KM came to 1570 ± 1200 µM.

With C16U G41A, the KM stood at 1010 ± 720 µM.

As to U45A G59A, the KM amounted to 15500 ± 6800 µM.

For G29U G41A, the KM came out at 1480 ± 620 µM.

In the case of G32U G37A, the KM was found to be 3700 ± 3100 µM.

As for A6C U65A, the KM was determined as 3180 ± 190 µM.

For the variant G41C A52U, the KM is 808 ± 440 µM.

For G29A A39G, the KM was 893 ± 750 µM.

For U47A G59U, the KM was 16400 ± 660 µM.

In the case of G29A A39U A42U, the KM came to 3000 ± 790 µM.

Take U31C A33U: the KM was found to be 1150 ± 800 µM.

In the case of U47C A53U, the KM is 1150 ± 280 µM.

Consider U54C G59U, for which the KM is 8760 ± 8000 µM.

For U54G C58U, the Michaelis constant (KM) was 6130 ± 820 µM.

For A48G A53U, the KM was 1680 ± 1100 µM.

As for A48G A53G, the KM was found to be 2670 ± 1600 µM.

Consider U46A C71U, for which the KM was found to be 2020 ± 580 µM.

For U57C U65A, the KM stood at 1410 ± 140 µM.

Take G40U U55G: the KM was 2180 ± 1500 µM.

With G41U U45G, the Michaelis-Menten constant (KM) stood at 909 ± 340 µM.

In the case of A12U G40C, the KM turned out to be 1420 ± 310 µM.

As to G43U U55C, the KM came out at 177 ± 140 µM.

On to U45G U54G, for which the KM came out at 3940 ± 2400 µM.

Regarding U54C U69A, the KM turned out to be 82 ± 22 µM.

On to U45G C70U, for which the KM is 562 ± 260 µM.

In the case of A42C U46A, the KM was 640 ± 380 µM.

As for G40U U65G, the KM worked out at 8490 ± 8200 µM.

A39C C67G: the KM came out at 2120 ± 1200 µM.

With C11A C68G, the KM is 13.3 ± 6.9 µM.

Regarding A48U U54G C70U, the KM came out at 1760 ± 550 µM.

On to A36U A52G, for which the KM came out at 766 ± 740 µM.

Consider G40C C70U C71G, for which the KM came out at 678 ± 490 µM.

As to U56G A64G, the KM worked out at 2680 ± 1000 µM.

For C58G G66A, the KM worked out at 658 ± 540 µM.

As for A14G A15G, the KM amounted to 205 ± 110 µM.

Consider A39G U57C, for which the KM stood at 7160 ± 3700 µM.

Variants of B1 are the subject of a further data set. The experiment in a line: kcat; higher = faster cleavage; RNA array. Conditions: with glucosamine-6-phosphate. Summed up:
as §1
What is called kcat is the maximal rate divided by the concentration of active sites. For the variant C16A C34G C68G, the kcat amounted to 6.61e-05 ± 3.9e-05 s⁻¹.

On to G37A U56C G66U, for which the kcat was found to be 9.43e-05 ± 5.3e-05 s⁻¹.

On to C16U U56A, for which the kcat worked out at 0.00883 ± 0.0061 s⁻¹.

As to U55A C67A, the kcat was found to be 0.00614 ± 0.0041 s⁻¹.

Take U54G C67U: the kcat was 0.00298 ± 0.0018 s⁻¹.

For U30A C61A, the kcat is below 1e-05 s⁻¹.

Turning to G44U U47C, the kcat was 5.22e-05 ± 2.9e-05 s⁻¹.

As to G7A C16U, the kcat came to 7.82e-05 ± 7.7e-05 s⁻¹.

Turning to G29U G41A, the kcat was determined as 0.000207 ± 3.7e-05 s⁻¹.

For G29A A39G, the kcat was 0.0054 ± 0.0031 s⁻¹.

In the case of C61A C67U, the kcat stood at 4.47e-05 ± 1.3e-05 s⁻¹.

As for G40U U55G, the kcat was found to be 0.00263 ± 0.0014 s⁻¹.

Regarding U49G C61G, the kcat was below 1e-05 s⁻¹.

U54C U69A: the kcat is 0.000112 ± 7.5e-06 s⁻¹.

For U45G C70U, the kcat was found to be 0.00681 ± 0.0021 s⁻¹.

G29C C61G C67U: the turnover number (kcat) turned out to be 2.09e-05 ± 1.3e-05 s⁻¹.

G40U U65G: the kcat worked out at 0.00373 ± 0.0025 s⁻¹.

As for C19A U54C C58A C68G, the kcat was 5.03e-05 ± 4.1e-05 s⁻¹.

For the variant A48U U54G C70U, the kcat came to 0.000549 ± 9.5e-05 s⁻¹.

For A15U U46C C70G, the kcat was determined as 4.64e-05 ± 2.4e-05 s⁻¹.

Consider A14C G43U U56A C68U, for which the kcat was 0.000184 ± 9.6e-05 s⁻¹.

Consider A39G U54G, for which the kcat was found to be 0.00463 ± 0.0031 s⁻¹.

In the case of A15C C16A G37U C70U C71G, the kcat came to 1.25e-05 ± 2.5e-06 s⁻¹.

For the variant A33G C71G, the kcat is 1.2e-05 ± 6.2e-06 s⁻¹.

In another data set the parent is B1. The data set can be described thus: self-cleavage kobs at 160 uM GlcN6P; higher = faster cleavage; RNA array. Conditions: with glucosamine-6-phosphate. The method, boiled down:
as §1
As for G13U C58G, the “self-cleavage kobs at 160 uM GlcN6P” value came to 2.94e-05 ± 1.5e-05 s⁻¹.

As for G40U U65G, the “self-cleavage kobs at 160 uM GlcN6P” value was 3.53e-05 ± 2.6e-05 s⁻¹.

With A39G U57C, the “self-cleavage kobs at 160 uM GlcN6P” value came to 2.9e-05 ± 1.9e-05 s⁻¹.

Variants of B1 are the subject of another data set. The data set can be described thus: self-cleavage kobs at 2500 uM GlcN6P; higher = faster cleavage; RNA array. Conditions: with glucosamine-6-phosphate. Summed up: as §1
In the case of U55A C67A, the “self-cleavage kobs at 2500 uM GlcN6P” value was determined as 0.00282 ± 0.0028 s⁻¹.

Turning to G32U G37A, the “self-cleavage kobs at 2500 uM GlcN6P” value came to 1.42e-05 ± 8.5e-06 s⁻¹.

With U31C A33U, the “self-cleavage kobs at 2500 uM GlcN6P” value was determined as 1.67e-05 ± 1.2e-05 s⁻¹.

The variants in the next data set derive from B1. The data set can be described thus: self-cleavage kobs at 10000 uM GlcN6P; higher = faster cleavage; RNA array. Conditions: with glucosamine-6-phosphate. Summed up:
as §1
For the variant A53C C58U, the “self-cleavage kobs at 10000 uM GlcN6P” value was 1.77e-05 ± 1.2e-05 s⁻¹.

In the case of G41C A52U, the “self-cleavage kobs at 10000 uM GlcN6P” value came to 1.17e-05 ± 7.6e-06 s⁻¹.

For U47A G59U, the “self-cleavage kobs at 10000 uM GlcN6P” value worked out at 2.23e-05 ± 1.5e-05 s⁻¹.

On to U57C U65A, for which the “self-cleavage kobs at 10000 uM GlcN6P” value came out at 1.68e-05 ± 1.3e-05 s⁻¹.

As for C19A U54C C58A C68G, the “self-cleavage kobs at 10000 uM GlcN6P” value was 1.94e-05 ± 1.7e-05 s⁻¹.

With A39C C67G, the “self-cleavage kobs at 10000 uM GlcN6P” value is 0.00295 ± 0.002 s⁻¹.

The variants in a further data set derive from B1. The data set can be described thus: self-cleavage kobs at 40 uM GlcN6P; higher = faster cleavage; RNA array. Conditions: with glucosamine-6-phosphate. The method, boiled down: as §1
As for U31G G41U, the “self-cleavage kobs at 40 uM GlcN6P” value amounted to 2.78e-05 ± 2.1e-05 s⁻¹.

G29A A39U A42U: the “self-cleavage kobs at 40 uM GlcN6P” value came to 2.41e-05 ± 1.6e-05 s⁻¹.

As to C19A U54C C58A C68G, the “self-cleavage kobs at 40 uM GlcN6P” value is 2.84e-05 ± 1.8e-05 s⁻¹.

In the case of A48U U54G C70U, the “self-cleavage kobs at 40 uM GlcN6P” value was 2.48e-05 ± 2.1e-05 s⁻¹.

Turning to A14C G43U U56A C68U, the “self-cleavage kobs at 40 uM GlcN6P” value was 4.08e-05 ± 2.7e-05 s⁻¹.

Variants of B1 are the subject of the next data set. The data set can be described thus: self-cleavage kobs at 640 uM GlcN6P; higher = faster cleavage; RNA array. Conditions: with glucosamine-6-phosphate. Summed up: as §1
For the variant U31G G41C, the “self-cleavage kobs at 640 uM GlcN6P” value came out at 3.39e-05 ± 1.9e-05 s⁻¹.

Turning to G32U G37A, the “self-cleavage kobs at 640 uM GlcN6P” value is 1.77e-05 ± 1.3e-05 s⁻¹.

For A48G A53G, the “self-cleavage kobs at 640 uM GlcN6P” value stood at 1.39e-05 ± 9.7e-06 s⁻¹.

In the case of G43U U55C, the “self-cleavage kobs at 640 uM GlcN6P” value is 2.83e-05 ± 1.6e-05 s⁻¹.
